Results are given in words; binding and its absence hold for the method and conditions named. Binding seen in cells or lysates may run through a third protein. Binding calls can cover weak binding; strength is not graded here.
Assays:
Assay in all cases: co-IP; lysates in NTEN buffer (100 mM NaCl, 20 mM Tris-HCl pH 8.0, 0.5 mM EDTA, 0.5% Nonidet P-40) of parental LNCaP cells (300 μg protein) and of the δ-catenin-overexpressing clone OE1b; incubated 4-16 hours with precipitating antibodies on protein A/G PLUS-agarose beads; IgG as control; SDS-PAGE and Western blot
[1] = molecular target: T1, p120 (human (endogenous in LNCaP)) (UniProt O60716)
T1 sequence: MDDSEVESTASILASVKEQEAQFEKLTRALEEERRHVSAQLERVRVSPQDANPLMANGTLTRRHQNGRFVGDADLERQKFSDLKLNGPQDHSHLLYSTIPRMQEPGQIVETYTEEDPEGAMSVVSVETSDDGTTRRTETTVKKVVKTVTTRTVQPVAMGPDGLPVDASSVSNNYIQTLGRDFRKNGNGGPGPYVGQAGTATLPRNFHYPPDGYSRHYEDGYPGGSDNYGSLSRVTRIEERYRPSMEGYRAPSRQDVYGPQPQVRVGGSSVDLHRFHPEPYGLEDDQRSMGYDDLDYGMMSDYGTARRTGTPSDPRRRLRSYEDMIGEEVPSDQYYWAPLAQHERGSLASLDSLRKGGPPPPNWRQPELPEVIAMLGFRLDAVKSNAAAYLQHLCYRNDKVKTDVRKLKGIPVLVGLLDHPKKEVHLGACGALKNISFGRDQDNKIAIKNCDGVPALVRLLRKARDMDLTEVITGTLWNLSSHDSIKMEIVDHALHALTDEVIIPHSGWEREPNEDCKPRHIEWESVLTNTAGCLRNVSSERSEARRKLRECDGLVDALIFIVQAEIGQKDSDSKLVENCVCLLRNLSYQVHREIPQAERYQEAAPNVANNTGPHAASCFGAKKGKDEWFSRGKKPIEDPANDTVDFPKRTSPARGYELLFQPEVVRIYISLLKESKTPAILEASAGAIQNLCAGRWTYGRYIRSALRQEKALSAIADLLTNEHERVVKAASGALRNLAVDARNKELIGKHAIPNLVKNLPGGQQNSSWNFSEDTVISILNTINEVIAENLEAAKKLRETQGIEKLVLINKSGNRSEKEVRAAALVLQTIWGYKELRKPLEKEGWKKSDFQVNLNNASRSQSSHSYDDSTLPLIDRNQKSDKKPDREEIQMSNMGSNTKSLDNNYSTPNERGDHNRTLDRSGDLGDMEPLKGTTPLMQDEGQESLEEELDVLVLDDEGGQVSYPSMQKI

[2] = molecular target: α-catenin (human (endogenous in LNCaP))
[3] = molecular target: E-cadherin (human (endogenous in LNCaP))

“E-cadherin (human (endogenous in LNCaP))” was tested, and the binding [1] was “binds”.

For α-catenin (human (endogenous in LNCaP)), the binding [1] was “binds”.

B1: p120 (protein, UniProt O60716 1-968)
chain: MDDSEVESTASILASVKEQEAQFEKLTRALEEERRHVSAQLERVRVSPQDANPLMANGTLTRRHQNGRFVGDADLERQKFSDLKLNGPQDHSHLLYSTIPRMQEPGQIVETYTEEDPEGAMSVVSVETSDDGTTRRTETTVKKVVKTVTTRTVQPVAMGPDGLPVDASSVSNNYIQTLGRDFRKNGNGGPGPYVGQAGTATLPRNFHYPPDGYSRHYEDGYPGGSDNYGSLSRVTRIEERYRPSMEGYRAPSRQDVYGPQPQVRVGGSSVDLHRFHPEPYGLEDDQRSMGYDDLDYGMMSDYGTARRTGTPSDPRRRLRSYEDMIGEEVPSDQYYWAPLAQHERGSLASLDSLRKGGPPPPNWRQPELPEVIAMLGFRLDAVKSNAAAYLQHLCYRNDKVKTDVRKLKGIPVLVGLLDHPKKEVHLGACGALKNISFGRDQDNKIAIKNCDGVPALVRLLRKARDMDLTEVITGTLWNLSSHDSIKMEIVDHALHALTDEVIIPHSGWEREPNEDCKPRHIEWESVLTNTAGCLRNVSSERSEARRKLRECDGLVDALIFIVQAEIGQKDSDSKLVENCVCLLRNLSYQVHREIPQAERYQEAAPNVANNTGPHAASCFGAKKGKDEWFSRGKKPIEDPANDTVDFPKRTSPARGYELLFQPEVVRIYISLLKESKTPAILEASAGAIQNLCAGRWTYGRYIRSALRQEKALSAIADLLTNEHERVVKAASGALRNLAVDARNKELIGKHAIPNLVKNLPGGQQNSSWNFSEDTVISILNTINEVIAENLEAAKKLRETQGIEKLVLINKSGNRSEKEVRAAALVLQTIWGYKELRKPLEKEGWKKSDFQVNLNNASRSQSSHSYDDSTLPLIDRNQKSDKKPDREEIQMSNMGSNTKSLDNNYSTPNERGDHNRTLDRSGDLGDMEPLKGTTPLMQDEGQESLEEELDVLVLDDEGGQVSYPSMQKI
In the case of B1, the binding [2] is reported as “binds” and the binding [3] is reported as “binds”.

B2: δ-catenin (endogenous in parental LNCaP cells) (protein, UniProt Q9UQB3 1-1225)
chain: MFARKPPGAAPLGAMPVPDQPSSASEKTSSLSPGLNTSNGDGSETETTSAILASVKEQELQFERLTRELEAERQIVASQLERCKLGSETGSMSSMSSAEEQFQWQSQDGQKDIEDELTTGLELVDSCIRSLQESGILDPQDYSTGERPSLLSQSALQLNSKPEGSFQYPASYHSNQTLALGETTPSQLPARGTQARATGQSFSQGTTSRAGHLAGPEPAPPPPPPPREPFAPSLGSAFHLPDAPPAAAAAALYYSSSTLPAPPRGGSPLAAPQGGSPTKLQRGGSAPEGATYAAPRGSSPKQSPSRLAKSYSTSSPINIVVSSAGLSPIRVTSPPTVQSTISSSPIHQLSSTIGTYATLSPTKRLVHASEQYSKHSQELYATATLQRPGSLAAGSRASYSSQHGHLGPELRALQSPEHHIDPIYEDRVYQKPPMRSLSQSQGDPLPPAHTGTYRTSTAPSSPGVDSVPLQRTGSQHGPQNAAAATFQRASYAAGPASNYADPYRQLQYCPSVESPYSKSGPALPPEGTLARSPSIDSIQKDPREFGWRDPELPEVIQMLQHQFPSVQSNAAAYLQHLCFGDNKIKAEIRRQGGIQLLVDLLDHRMTEVHRSACGALRNLVYGKANDDNKIALKNCGGIPALVRLLRKTTDLEIRELVTGVLWNLSSCDALKMPIIQDALAVLTNAVIIPHSGWENSPLQDDRKIQLHSSQVLRNATGCLRNVSSAGEEARRRMRECDGLTDALLYVIQSALGSSEIDSKTVENCVCILRNLSYRLAAETSQGQHMGTDELDGLLCGEANGKDAESSGCWGKKKKKKKSQDQWDGVGPLPDCAEPPKGIQMLWHPSIVKPYLTLLSECSNPDTLEGAAGALQNLAAGSWKWSVYIRAAVRKEKGLPILVELLRIDNDRVVCAVATALRNMALDVRNKELIGKYAMRDLVHRLPGGNNSNNTASKAMSDDTVTAVCCTLHEVITKNMENAKALRDAGGIEKLVGISKSKGDKHSPKVVKAASQVLNSMWQYRDLRSLYKKDGWSQYHFVASSSTIERDRQRPYSSSRTPSISPVRVSPNNRSASAPASPREMISLKERKTDYECTGSNATYHGAKGEHTSRKDAMTAQNTGISTLYRNSYGAPAEDIKHNQVSAQPVPQEPSRKDYETYQPFQNSTRNYDESFFEDQVHHRPPASEYTMHLGLKSTGNYVDFYSAARPYSELNYETSHYPASPDSWV
In the case of B2, the binding [2] is reported as “binds” and the binding [3] is reported as “binds”.

Reference: paper PMC5966253
